Test [1] concerns the target ctSyo1-FLAG-TEV-ProtA (Chaetomium thermophilum) (UniProt G0S5S6). The test is described as follows: affinity purification with mass spectrometry; FLAG-TEV-ProtA (FtpA)-tagged bait from C. thermophilum mycelium lysate; IgG Sepharose, TEV elution, anti-FLAG gel, FLAG peptide elution; NB-HEPES buffer (20 mM HEPES pH 7.5, 150 mM NaCl, 50 mM K(OAc), 2 mM Mg(OAc)2, 1 mM DTT, 5% glycerol, 0.1% IGEPAL CA-630); FLAG eluate on a 5–30% sucrose gradient, SDS-PAGE, bands identified by mass spectrometry; the complex contains 5S rRNA.

Chains of the proteins cited; added tags and fusions are not shown. Lines headed by an entry give the natural chain unless they say otherwise; changes in a name come on top.
UniProt G0S5S6: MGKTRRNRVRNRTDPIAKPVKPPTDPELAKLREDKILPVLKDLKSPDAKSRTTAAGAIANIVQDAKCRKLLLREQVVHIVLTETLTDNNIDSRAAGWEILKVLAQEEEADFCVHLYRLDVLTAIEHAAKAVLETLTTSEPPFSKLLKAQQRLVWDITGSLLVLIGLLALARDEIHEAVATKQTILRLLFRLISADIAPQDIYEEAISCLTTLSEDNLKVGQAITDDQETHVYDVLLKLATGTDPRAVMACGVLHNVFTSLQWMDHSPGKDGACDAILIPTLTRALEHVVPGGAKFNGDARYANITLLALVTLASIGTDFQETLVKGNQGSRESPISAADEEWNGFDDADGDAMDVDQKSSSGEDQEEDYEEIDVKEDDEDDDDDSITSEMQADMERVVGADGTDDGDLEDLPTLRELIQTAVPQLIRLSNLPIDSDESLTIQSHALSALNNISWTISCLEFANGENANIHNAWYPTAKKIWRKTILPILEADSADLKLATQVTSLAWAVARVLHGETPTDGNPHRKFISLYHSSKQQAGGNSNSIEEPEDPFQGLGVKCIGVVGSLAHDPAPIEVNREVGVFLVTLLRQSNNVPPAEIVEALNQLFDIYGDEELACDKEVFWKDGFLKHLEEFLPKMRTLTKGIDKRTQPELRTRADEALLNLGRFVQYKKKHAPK
UniProt G0SF80: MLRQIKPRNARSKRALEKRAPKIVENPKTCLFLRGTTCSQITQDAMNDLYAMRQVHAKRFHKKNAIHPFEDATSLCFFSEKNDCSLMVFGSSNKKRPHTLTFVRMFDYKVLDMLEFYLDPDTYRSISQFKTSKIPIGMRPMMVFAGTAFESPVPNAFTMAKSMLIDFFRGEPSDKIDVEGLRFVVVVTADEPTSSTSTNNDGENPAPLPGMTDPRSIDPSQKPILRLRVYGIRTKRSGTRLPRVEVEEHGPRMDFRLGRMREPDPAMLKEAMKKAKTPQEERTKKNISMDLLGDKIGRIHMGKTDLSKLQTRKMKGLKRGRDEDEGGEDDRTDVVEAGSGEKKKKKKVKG
UniProt G0SCH6: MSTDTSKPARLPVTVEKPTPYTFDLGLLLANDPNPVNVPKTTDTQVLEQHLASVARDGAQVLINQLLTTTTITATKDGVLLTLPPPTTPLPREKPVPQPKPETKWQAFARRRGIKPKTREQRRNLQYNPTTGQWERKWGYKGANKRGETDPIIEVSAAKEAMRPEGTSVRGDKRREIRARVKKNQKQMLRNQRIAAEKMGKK
UniProt G0S604: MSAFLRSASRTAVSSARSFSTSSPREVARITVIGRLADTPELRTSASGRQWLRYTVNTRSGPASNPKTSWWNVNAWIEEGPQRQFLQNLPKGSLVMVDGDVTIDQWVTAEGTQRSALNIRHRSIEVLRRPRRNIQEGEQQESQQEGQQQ
UniProt G0SC91: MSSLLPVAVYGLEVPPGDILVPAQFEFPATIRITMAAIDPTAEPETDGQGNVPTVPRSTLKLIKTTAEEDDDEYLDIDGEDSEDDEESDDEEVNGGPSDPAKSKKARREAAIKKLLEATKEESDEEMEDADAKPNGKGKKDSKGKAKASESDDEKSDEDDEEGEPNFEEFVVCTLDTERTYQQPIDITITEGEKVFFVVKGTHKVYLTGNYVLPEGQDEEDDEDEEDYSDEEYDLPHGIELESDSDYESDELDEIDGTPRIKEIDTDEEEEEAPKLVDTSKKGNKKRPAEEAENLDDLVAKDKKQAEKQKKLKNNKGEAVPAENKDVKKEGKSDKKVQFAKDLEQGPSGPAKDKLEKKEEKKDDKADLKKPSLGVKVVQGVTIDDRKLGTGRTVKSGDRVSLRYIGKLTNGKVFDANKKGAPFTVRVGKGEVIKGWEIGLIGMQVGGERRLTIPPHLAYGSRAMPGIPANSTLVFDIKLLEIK
UniProt G0SF90: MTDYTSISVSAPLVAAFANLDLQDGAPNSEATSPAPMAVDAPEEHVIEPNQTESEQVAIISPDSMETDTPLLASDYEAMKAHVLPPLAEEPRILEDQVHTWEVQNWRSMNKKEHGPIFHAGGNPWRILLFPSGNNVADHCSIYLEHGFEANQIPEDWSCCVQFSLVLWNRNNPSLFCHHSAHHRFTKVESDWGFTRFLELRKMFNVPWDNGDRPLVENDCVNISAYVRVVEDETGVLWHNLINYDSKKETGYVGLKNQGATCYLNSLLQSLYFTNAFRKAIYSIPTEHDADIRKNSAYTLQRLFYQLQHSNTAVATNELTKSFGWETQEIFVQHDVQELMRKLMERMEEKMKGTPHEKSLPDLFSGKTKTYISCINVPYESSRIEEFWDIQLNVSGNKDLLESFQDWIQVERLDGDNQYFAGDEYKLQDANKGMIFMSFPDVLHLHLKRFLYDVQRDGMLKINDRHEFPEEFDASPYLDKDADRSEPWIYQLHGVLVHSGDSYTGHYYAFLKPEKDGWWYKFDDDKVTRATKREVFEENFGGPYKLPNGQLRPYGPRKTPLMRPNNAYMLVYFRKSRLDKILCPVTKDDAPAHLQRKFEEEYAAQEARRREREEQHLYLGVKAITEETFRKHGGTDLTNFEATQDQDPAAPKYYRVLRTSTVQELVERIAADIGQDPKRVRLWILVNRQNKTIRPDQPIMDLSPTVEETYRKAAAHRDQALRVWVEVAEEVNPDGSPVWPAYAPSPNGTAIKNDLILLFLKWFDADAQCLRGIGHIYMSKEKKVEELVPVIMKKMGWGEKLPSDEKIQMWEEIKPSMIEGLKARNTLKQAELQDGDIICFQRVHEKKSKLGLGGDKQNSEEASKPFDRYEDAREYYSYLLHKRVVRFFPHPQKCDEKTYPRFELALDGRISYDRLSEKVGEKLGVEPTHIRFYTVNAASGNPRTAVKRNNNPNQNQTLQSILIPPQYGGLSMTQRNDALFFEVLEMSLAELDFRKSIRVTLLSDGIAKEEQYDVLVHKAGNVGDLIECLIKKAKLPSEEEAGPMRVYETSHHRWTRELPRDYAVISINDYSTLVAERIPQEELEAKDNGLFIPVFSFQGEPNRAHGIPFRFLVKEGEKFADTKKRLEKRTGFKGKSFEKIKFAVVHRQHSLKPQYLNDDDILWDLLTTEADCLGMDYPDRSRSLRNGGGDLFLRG
UniProt Q06205: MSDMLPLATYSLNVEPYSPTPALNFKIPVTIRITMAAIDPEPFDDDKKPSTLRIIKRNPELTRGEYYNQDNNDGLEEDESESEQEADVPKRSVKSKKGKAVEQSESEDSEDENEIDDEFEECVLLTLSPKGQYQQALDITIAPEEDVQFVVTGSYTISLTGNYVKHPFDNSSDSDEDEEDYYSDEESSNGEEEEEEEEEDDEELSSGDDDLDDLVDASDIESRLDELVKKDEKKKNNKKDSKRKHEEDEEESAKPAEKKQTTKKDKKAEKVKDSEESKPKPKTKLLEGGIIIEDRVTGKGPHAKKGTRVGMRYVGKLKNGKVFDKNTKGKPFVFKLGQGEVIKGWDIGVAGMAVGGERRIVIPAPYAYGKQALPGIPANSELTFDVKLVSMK
UniProt G0SHQ2: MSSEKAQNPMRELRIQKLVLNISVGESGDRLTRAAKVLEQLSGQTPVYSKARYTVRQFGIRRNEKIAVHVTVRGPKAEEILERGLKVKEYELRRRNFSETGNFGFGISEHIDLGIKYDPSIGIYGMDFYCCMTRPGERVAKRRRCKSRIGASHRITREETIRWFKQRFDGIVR
UniProt G0SEG2: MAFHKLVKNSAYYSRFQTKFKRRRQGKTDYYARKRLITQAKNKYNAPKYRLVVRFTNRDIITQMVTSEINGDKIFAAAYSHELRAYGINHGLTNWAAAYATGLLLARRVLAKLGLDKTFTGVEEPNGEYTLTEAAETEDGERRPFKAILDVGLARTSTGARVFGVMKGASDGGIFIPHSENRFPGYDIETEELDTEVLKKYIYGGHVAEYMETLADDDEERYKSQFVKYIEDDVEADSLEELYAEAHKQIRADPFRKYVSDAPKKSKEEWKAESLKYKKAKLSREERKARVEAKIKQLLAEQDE

The target of test [2] is T1, ProtA-TEV-tagged scSyo1 (S. cerevisiae) (UniProt Q07395).
T1 sequence: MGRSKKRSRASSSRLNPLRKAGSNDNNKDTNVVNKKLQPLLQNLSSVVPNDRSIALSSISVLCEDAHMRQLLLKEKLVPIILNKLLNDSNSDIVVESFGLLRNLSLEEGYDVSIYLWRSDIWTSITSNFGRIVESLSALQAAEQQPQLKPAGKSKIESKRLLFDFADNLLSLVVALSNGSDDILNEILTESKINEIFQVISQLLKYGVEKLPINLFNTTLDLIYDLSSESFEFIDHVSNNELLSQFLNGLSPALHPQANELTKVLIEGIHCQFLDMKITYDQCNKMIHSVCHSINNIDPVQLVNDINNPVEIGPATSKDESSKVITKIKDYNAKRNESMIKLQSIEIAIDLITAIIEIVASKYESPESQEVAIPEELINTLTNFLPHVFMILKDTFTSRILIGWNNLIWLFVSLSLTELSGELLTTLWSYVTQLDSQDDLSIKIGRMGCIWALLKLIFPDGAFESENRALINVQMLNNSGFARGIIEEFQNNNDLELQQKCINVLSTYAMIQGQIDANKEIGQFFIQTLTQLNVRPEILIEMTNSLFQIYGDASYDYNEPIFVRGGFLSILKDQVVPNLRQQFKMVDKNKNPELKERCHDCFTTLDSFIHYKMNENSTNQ
The experiment in a line: affinity purification with mass spectrometry; split-tag tandem affinity purification (ProtA bait on IgG Sepharose, TEV elution, FLAG bait on anti-FLAG gel, FLAG peptide elution) from lysate of S. cerevisiae expressing the factors; NB-HEPES buffer; SDS-PAGE, Coomassie, bands identified by mass spectrometry; the complexes contain yeast 5S rRNA.

Test [3] has as its target ProtA-TEV-ctSyo1 (Chaetomium thermophilum) (UniProt G0S5S6). Described as above.
Test [4] has as its target T2, Rpf2-FtpA (yeast) (S. cerevisiae) (UniProt P36160).
T2 sequence: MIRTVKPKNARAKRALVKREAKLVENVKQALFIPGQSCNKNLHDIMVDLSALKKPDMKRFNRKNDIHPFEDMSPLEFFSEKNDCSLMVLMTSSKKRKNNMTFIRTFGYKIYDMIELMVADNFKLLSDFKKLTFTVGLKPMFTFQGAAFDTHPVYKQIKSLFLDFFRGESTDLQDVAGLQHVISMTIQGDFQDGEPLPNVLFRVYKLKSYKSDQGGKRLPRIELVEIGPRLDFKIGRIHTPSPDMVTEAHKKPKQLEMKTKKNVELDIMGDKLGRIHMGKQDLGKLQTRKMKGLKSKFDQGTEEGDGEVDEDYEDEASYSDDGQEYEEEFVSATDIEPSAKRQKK
The experiment in a line: affinity purification with mass spectrometry; tandem affinity purification via FtpA-tagged Rpf2 (wild type or ΔC) from yeast after 6 h repression of GAL::HA-RPF2 and GAL::HA-RRS1 in glucose; eluate on a 5–30% sucrose gradient, SDS-PAGE, Coomassie, bands identified by mass spectrometry.

The target in test [5] is ctRpf2-FLAG-TEV-ProtA (Chaetomium thermophilum) (UniProt G0SF80). The test is described as follows: affinity purification with mass spectrometry; FLAG-TEV-ProtA (FtpA)-tagged bait from C. thermophilum mycelium lysate; IgG Sepharose, TEV elution, anti-FLAG gel, FLAG peptide elution; NB-HEPES buffer (20 mM HEPES pH 7.5, 150 mM NaCl, 50 mM K(OAc), 2 mM Mg(OAc)2, 1 mM DTT, 5% glycerol, 0.1% IGEPAL CA-630); FLAG eluate on a 5–30% sucrose gradient, SDS-PAGE, bands identified by mass spectrometry; the complex contains 5S rRNA.

The target in test [6] is ctRrs1-FLAG-TEV-ProtA (Chaetomium thermophilum) (UniProt G0SCH6). The test is described as above.
Test [7] has as its target T3, FLAG-scRrs1 (S. cerevisiae) (UniProt Q08746).
T3 sequence: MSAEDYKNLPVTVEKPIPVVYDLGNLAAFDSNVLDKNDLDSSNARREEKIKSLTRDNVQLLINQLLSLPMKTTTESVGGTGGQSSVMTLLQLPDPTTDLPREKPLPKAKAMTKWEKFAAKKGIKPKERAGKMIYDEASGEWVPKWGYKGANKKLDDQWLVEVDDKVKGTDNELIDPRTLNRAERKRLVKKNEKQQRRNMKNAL
The experiment in a line: affinity purification with mass spectrometry; split-tag tandem affinity purification (ProtA bait on IgG Sepharose, TEV elution, FLAG bait on anti-FLAG gel, FLAG peptide elution) from lysate of S. cerevisiae expressing the factors; NB-HEPES buffer; SDS-PAGE, Coomassie, bands identified by mass spectrometry; the complexes contain yeast 5S rRNA.

The target of test [8] is FLAG-ctRrs1 (Chaetomium thermophilum) (UniProt G0SCH6). The description is as above.

Results are given in words; binding and its absence hold for the method and conditions named. In cells and extracts the contact can be indirect. Here binding means that the protein was enriched with, or labelled near, the bait; the list need not be complete. For part of these data: Sequences can lack the tags named with a protein.

Turning to CTHT_0025560 (from UniProt G0S604), in test [1], the binding result was “binds”. Turning to “CTHT_0056370 (Fpr4 homologue) (from UniProt G0SC91)”, the binding result in test [1] is listed as “binds”. Consider CTHT_0061210 (from UniProt G0SF90), for which the binding result in test [1] is reported as “binds”.

As to “FLAG-Rpf2ΔC (S. cerevisiae) (domain or fragment)”, the binding entry in test [2] is given as “binds”. With FLAG-ctRrs1 (from UniProt G0SCH6), the binding entry in test [3] was “binds”. Turning to Fpr4 (from UniProt Q06205 1-392), the binding result in test [4] is given as “binds”. For the molecule “Rrs1ΔC (S. cerevisiae) (domain or fragment)”, the binding result in test [2] is on record as “binds”. With ctRrs1 (from UniProt G0SCH6), the binding result in test [1] is listed as “binds”. As for ctSyo1 (from UniProt G0S5S6), the binding entry in test [5] and in test [6] was “binds” throughout.

ctuL5 (from UniProt G0SHQ2): the binding entry in test [1], in test [5] and in test [6] was “binds” throughout.

Regarding ctuL18 (from UniProt G0SEG2), the binding entry in test [1], in test [5] and in test [6] was “binds” each time.

Consider scuL5 (S. cerevisiae), for which the binding result in test [7] and in test [2] was “binds” each time.

B1: scRpf2 (protein, UniProt P36160 1-344)
chain: MIRTVKPKNARAKRALVKREAKLVENVKQALFIPGQSCNKNLHDIMVDLSALKKPDMKRFNRKNDIHPFEDMSPLEFFSEKNDCSLMVLMTSSKKRKNNMTFIRTFGYKIYDMIELMVADNFKLLSDFKKLTFTVGLKPMFTFQGAAFDTHPVYKQIKSLFLDFFRGESTDLQDVAGLQHVISMTIQGDFQDGEPLPNVLFRVYKLKSYKSDQGGKRLPRIELVEIGPRLDFKIGRIHTPSPDMVTEAHKKPKQLEMKTKKNVELDIMGDKLGRIHMGKQDLGKLQTRKMKGLKSKFDQGTEEGDGEVDEDYEDEASYSDDGQEYEEEFVSATDIEPSAKRQKK
B1: the binding result in test [2] is “binds”.

B2: Fpr3 (protein, UniProt P38911 1-411)
chain: MSDLLPLATYSLNVEPYTPVPAIDVTMPITVRITMAALNPEAIDEENKPSTLRIIKRNPDFEDDDFLGGDFDEDEIDEESSEEEEEEKTQKKKKSKGKKAESESEDDEEDDDEDDEFQESVLLTLSPEAQYQQSLDLTITPEEEVQFIVTGSYAISLSGNYVKHPFDTPMGVEGEDEDEDADIYDSEDYDLTPDEDEIIGDDMDDLDDEEEEEVRIEEVQEEDEEDNDGEEEQEEEEEEEQKEEVKPEPKKSKKEKKRKHEEKEEEKKAKKVKKVEFKKDLEEGPTKPKSKKEQDKHKPKSKVLEGGIVIEDRTIGDGPQAKRGARVGMRYIGKLKNGKVFDKNTSGKPFAFKLGRGEVIKGWDIGVAGMSVGGERRIIIPAPYAYGKQALPGIPANSELTFDVKLVSMKN
B2: the binding result in test [4] is on record as “binds”.

B3: scuL18 (protein, UniProt P26321 1-297)
chain: MAFQKDAKSSAYSSRFQTPFRRRREGKTDYYQRKRLVTQHKAKYNTPKYRLVVRFTNKDIICQIISSTITGDVVLAAAYSHELPRYGITHGLTNWAAAYATGLLIARRTLQKLGLDETYKGVEEVEGEYELTEAVEDGPRPFKVFLDIGLQRTTTGARVFGALKGASDGGLYVPHSENRFPGWDFETEEIDPELLRSYIFGGHVSQYMEELADDDEERFSELFKGYLADDIDADSLEDIYTSAHEAIRADPAFKPTEKKFTKEQYAAESKKYRQTKLSKEERAARVAAKIAALAGQQ
As for B3, the binding result in test [7] and in test [2] was “binds” throughout.

B4: endogenous yeast uL18 (protein, UniProt P26321 1-297)
chain: MAFQKDAKSSAYSSRFQTPFRRRREGKTDYYQRKRLVTQHKAKYNTPKYRLVVRFTNKDIICQIISSTITGDVVLAAAYSHELPRYGITHGLTNWAAAYATGLLIARRTLQKLGLDETYKGVEEVEGEYELTEAVEDGPRPFKVFLDIGLQRTTTGARVFGALKGASDGGLYVPHSENRFPGWDFETEEIDPELLRSYIFGGHVSQYMEELADDDEERFSELFKGYLADDIDADSLEDIYTSAHEAIRADPAFKPTEKKFTKEQYAAESKKYRQTKLSKEERAARVAAKIAALAGQQ
Consider B4, for which the binding entry in test [8] and in test [3] was “binds” throughout.

For the origin of these results see article PMC10442235.
